Values from PubChem BioAssay AID1159591 (NIAID, 2016)

- Aim: 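Which TLR signalling genes macrophages need for R848-driven Tnf promoter activity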
- Cells: mouse RAW264.7 G9 macrophage reporter clone (GFP-p65, Tnf promoter-mCherry)
- Knock-down reagent: single siRNA against mouse genes
- Timing: cells assayed 48 to 72 hours after siRNA transfection; R848 for 16 hours before fixing
- Challenge: R848 (TLR7/8 agonist) for 16 hours before fixation; dose not given
- Read-out: 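After R848 for 16 hours, nuclear Tnf promoter mCherry signal imaged minus background, scaled per plate by median and MAD into robust z against non-targeting controls, averaged across replicates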
- Reading the numbers: mean Tnf reporter z-score: higher = stronger Tnf promoter reporter signal than controls
- Active means: 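Absolute z above 1, 1.5, 2 or 2.5 scores 25 up to 100; no stated active threshold; in practice calls fall at roughly z ≤ -1.5 or z ≥ 1.5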
- Calls: active = reporter clearly up or down; inactive = little reporter change
Here is one part, drawn at random, of 756 reagents. Over the whole deposit, 130 (17%) are marked active. 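Active calls include both lower and higher Tnf reporter signal.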 Unmarked entries are inactive. Not stated in the record: the amount of reagent.

For Map2k1 [SID303071446], the entry reads mean Tnf reporter z-score -0.32. For Map2k1 [SID303071447] the deposit lists mean Tnf reporter z-score -0.794. Depletion of Map2k1 [SID303071448] came out at: mean Tnf reporter z-score -1.11. After knock-down of Map2k1 [SID303071449], the screen gave mean Tnf reporter z-score 0.354. Against Map2k1 [SID303071450], the values are mean Tnf reporter z-score -0.399. After knock-down of Map2k1 [SID303071451], the screen gave mean Tnf reporter z-score -0.429.

Traf6 [SID303071332] showed mean Tnf reporter z-score -0.355. Against Traf6 [SID303071333], the values are mean Tnf reporter z-score -1.86 (active). Traf6 [SID303071334] scored mean Tnf reporter z-score -2.12 (active). Against Traf6 [SID303071335], the values are mean Tnf reporter z-score -0.488. With knock-down of Traf6 [SID303071336], the record shows mean Tnf reporter z-score -1.28. Traf6 [SID303071337] scored mean Tnf reporter z-score -1.4.

After knock-down of Irak1 [SID303071296] the results were mean Tnf reporter z-score -0.865. Irak1 [SID303071297] scored mean Tnf reporter z-score 0.538. After knock-down of Irak1 [SID303071298], the screen gave mean Tnf reporter z-score -0.413. With knock-down of Irak1 [SID303071299], the screen gave mean Tnf reporter z-score 1.63 (active). Silencing of Irak1 [SID303071300] came out at: mean Tnf reporter z-score 0.197. With knock-down of Irak1 [SID303071301], the record shows mean Tnf reporter z-score -0.704.

Lbp [SID303071248] showed mean Tnf reporter z-score 0.702. Against Lbp [SID303071249], the values are mean Tnf reporter z-score -0.0345. Against Lbp [SID303071250], the entry reads mean Tnf reporter z-score -0.568. After knock-down of Lbp [SID303071251] the results were mean Tnf reporter z-score -0.14. Lbp [SID303071252] showed mean Tnf reporter z-score 0.248. Lbp [SID303071253] showed mean Tnf reporter z-score 0.84.

Tlr7 [SID303071230] scored mean Tnf reporter z-score -1.69 (active). After knock-down of Tlr7 [SID303071231], the record shows mean Tnf reporter z-score -1.91 (active). Tlr7 [SID303071232] scored mean Tnf reporter z-score -2.49 (active). Depletion of Tlr7 [SID303071233] resulted in: mean Tnf reporter z-score -1.66 (active). With knock-down of Tlr7 [SID303071234] the results were mean Tnf reporter z-score -1.93 (active). With knock-down of Tlr7 [SID303071235], the record shows mean Tnf reporter z-score -1.36.

With knock-down of Relb [SID303071422] the results were mean Tnf reporter z-score -0.23. With knock-down of Relb [SID303071423], the record shows mean Tnf reporter z-score 0.283. Against Relb [SID303071424], the entry reads mean Tnf reporter z-score -1.47. Relb [SID303071425] showed mean Tnf reporter z-score 0.587. For Relb [SID303071426], the values are mean Tnf reporter z-score -1.47. Relb [SID303071427] showed mean Tnf reporter z-score -0.484.

With knock-down of Fos [SID303071716] the results were mean Tnf reporter z-score -0.14. After knock-down of Fos [SID303071717] the results were mean Tnf reporter z-score -1.18. For Fos [SID303071718], the values are mean Tnf reporter z-score -0.421. With knock-down of Fos [SID303071719], the record shows mean Tnf reporter z-score 0.518. For Fos [SID303071720], the values are mean Tnf reporter z-score -0.239. For Fos [SID303071721], the entry reads mean Tnf reporter z-score -0.345.

Against Nfkbie [SID303071398] the deposit lists mean Tnf reporter z-score -1.03. Against Nfkbie [SID303071399] the deposit lists mean Tnf reporter z-score -1.59 (active). Silencing of Nfkbie [SID303071400] resulted in: mean Tnf reporter z-score 0.224. Depletion of Nfkbie [SID303071401] came out at: mean Tnf reporter z-score -0.775. After knock-down of Nfkbie [SID303071402], the screen gave mean Tnf reporter z-score -0.824. With knock-down of Nfkbie [SID303071403], the record shows mean Tnf reporter z-score 0.529.
